Data on 54 sequences can be found in paper PMC7819943, “Rice protein-binding microarrays: a tool to detect cis-acting elements near promoter regions in rice”.

Some of the results follow.

For the experiment, the target named is T1, OsSMF1 (Oryza sativa, UniProt Q6ZLB0 1-436).
T1 sequence: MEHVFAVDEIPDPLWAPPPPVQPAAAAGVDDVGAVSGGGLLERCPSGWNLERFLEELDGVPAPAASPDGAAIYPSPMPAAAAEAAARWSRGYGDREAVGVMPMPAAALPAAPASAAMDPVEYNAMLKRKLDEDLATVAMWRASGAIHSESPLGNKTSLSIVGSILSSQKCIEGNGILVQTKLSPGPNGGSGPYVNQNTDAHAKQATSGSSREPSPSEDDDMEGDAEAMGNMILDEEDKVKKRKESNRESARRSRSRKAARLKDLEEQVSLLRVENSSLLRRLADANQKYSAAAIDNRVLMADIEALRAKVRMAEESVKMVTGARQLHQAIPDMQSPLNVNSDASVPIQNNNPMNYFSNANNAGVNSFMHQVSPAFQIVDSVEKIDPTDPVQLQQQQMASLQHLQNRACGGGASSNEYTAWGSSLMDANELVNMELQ
Nature of the experiment: protein-binding microarray (RPBM); PBS, 2% BSA, 51.3 ng/ul salmon testes DNA, 50 uM zinc acetate, 200 nM TF, 25 C, 1 h; high values mean tight binding. As to conditions: protein: recombinant; tags: N-terminal polyhistidine and DsRed monomer fusion (pET32a); chain copies: 2; label: CyDye5-dUTP incorporated in the synthesized complementary strand; 3' TTTTT single-stranded linker to array surface; dsDNA, one strand shown. The method in brief: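 The binding signal is fluorescence intensity per feature, in arbitrary units, read on an Axon 4000B scanner. Polyhistidine- and DsRed-tagged transcription factors (N-terminal fusions) from E. coli BL21-CodonPlus were purified on Ni–NTA and applied at 200 nM for 1 h at 25 °C to a double-stranded, BSA-blocked custom Agilent array in buffer with 50 µM zinc acetate.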
In the case of “TTGGATTCAAATTGCCACATAAGCTCCACGTCAAATGCCACGGAGTCACCTAGTGCAG”, the binding signal is 21300 fluorescence intensity (a.u.).
For “AACATGTTAGTGGGTTATGTATGGCTAAGCGACTCTATAACGGAGTCACCTAGTGCAG”, the binding signal is 22100 fluorescence intensity (a.u.).
To “GAAGTATACTTTATTATCCGCACTGCTCACGTGGTGGCTACGGAGTCACCTAGTGCAG” belongs 4750 fluorescence intensity (a.u.); to “AGGCATAGGCATAGGCATGGCCAGCCAGCCGCGTCGACGTCGGAGTCACCTAGTGCAG”, 3260 fluorescence intensity (a.u.); to “AGAGAGAGGGGAGAGGGGTGGAAGGGGAATATGGTAGCTGCGGAGTCACCTAGTGCAG”, 3330 fluorescence intensity (a.u.).
With “AAGGAGGCAGCACCGATCCAAACGGCCCGCGTGGCGTTCGCGGAGTCACCTAGTGCAG” the figure was 4120 fluorescence intensity (a.u.).
To “CGCCCAGGCCTTCGCAGTGCTGACTCAATAGCATCCACCCCGGAGTCACCTAGTGCAG” belongs 7440 fluorescence intensity (a.u.); to “GCCCTGGACGCGGGCGTGGGCGTGGCGGAACCAGAGCTCCCGGAGTCACCTAGTGCAG”, 4290 fluorescence intensity (a.u.).
As to “TGGCCACATATGCCACCTAGTTTAAATCAACTTGGGCAAACGGAGTCACCTAGTGCAG”, the binding signal is 3150 fluorescence intensity (a.u.).
To “GAATGCTACGAATGACGCTGCACGGCGCGTGTTCTCATTTCGGAGTCACCTAGTGCAG” belongs 3510 fluorescence intensity (a.u.); to “GGCCCGAATGTATTGCGGCCTACGTGTGGGGCCGTACTTACGGAGTCACCTAGTGCAG”, 3490 fluorescence intensity (a.u.); to “CCTATGTAGTACAGTGGTAGTAGAATATCCACGGTTTTATCGGAGTCACCTAGTGCAG”, 6670 fluorescence intensity (a.u.).
With “ATGTGTGTGTGATATGCTGATGTAACTATCAGGTATGCACCGGAGTCACCTAGTGCAG” the figure was 3700 fluorescence intensity (a.u.); with “GGGTGGGTGATCTATCGATACAATGCATGCGTGGGCTTCTCGGAGTCACCTAGTGCAG”, 3900 fluorescence intensity (a.u.).
As for “CCCATGCGAGGCGTACGTGCGGTGCGGTGTTCAGACTCTCCGGAGTCACCTAGTGCAG”, the binding signal is 3300 fluorescence intensity (a.u.).
On to “GTTTTGCTTAGAGGATGTCTCCAGTTTTGTTGTGTGTCACCGGAGTCACCTAGTGCAG”, for which the binding signal was 3950 fluorescence intensity (a.u.).
“TCCCGGCAGTTCTTACCCTGCATCATCAGAGTGGTCATTACGGAGTCACCTAGTGCAG”: the binding signal was 4260 fluorescence intensity (a.u.).
With “CGGCGACGACCTTCAGCGATGTTTTGTCACTGTCCCCGGCCGGAGTCACCTAGTGCAG” the figure was 3680 fluorescence intensity (a.u.).
With “CGGCGCGTGCGCCACCGCAGCGGCGCCATCGCCGTCGCCGCGGAGTCACCTAGTGCAG” the figure was 4120 fluorescence intensity (a.u.); with “GTCCCCGGCCTCGGCGCGCGGCGAGCACCGTGCCGCCCCACGGAGTCACCTAGTGCAG”, 24000 fluorescence intensity (a.u.); with “ACTGTTTAGTAGTTCAGAAACTCTAGGAAGTGAAGGTTGACGGAGTCACCTAGTGCAG”, 28300 fluorescence intensity (a.u.).
For “CCCAACATTGTGGGGCCCACATGTCAGTGTGAGGGACCACCGGAGTCACCTAGTGCAG”, the binding signal is 4410 fluorescence intensity (a.u.).
Take “CAATCAGACACATCACACGGTCTACCAAACCTACAAACCGCGGAGTCACCTAGTGCAG”: the binding signal was 13800 fluorescence intensity (a.u.).
As for “TTCTATGTTTAATACTTCAAATATGTGTCCGTATATTTCACGGAGTCACCTAGTGCAG”, the binding signal was 3480 fluorescence intensity (a.u.).
“CCATGTTCTTCCTCCTCCACCACCTCCACTGCTACATATCCGGAGTCACCTAGTGCAG”: the binding signal was 3570 fluorescence intensity (a.u.).
As for “AATAATTAATTCATTTGTTTATACACTTAAATAGCTAATACGGAGTCACCTAGTGCAG”, the binding signal is 11000 fluorescence intensity (a.u.).
Regarding “ATCTAGAAAGATGACCTACCTGAGGTGTAATTTTACACTCCGGAGTCACCTAGTGCAG”, the binding signal is 3640 fluorescence intensity (a.u.).
With “ATGATAGATTACATATTTACAGTGATTAAGCATAGCATTACGGAGTCACCTAGTGCAG” the figure was 3510 fluorescence intensity (a.u.).
As to “ACCCGGTGATCCGCTAATAGATACGTTGGTTTACAATAGTCGGAGTCACCTAGTGCAG”, the binding signal is 3670 fluorescence intensity (a.u.).
To “TGCGTTTCTCAAATTATACAAGTCATGATGGATATGTCGTCGGAGTCACCTAGTGCAG” belongs 4180 fluorescence intensity (a.u.); to “AAACATTGACTCTCTCCGTCCCTAAATATTTAACTGTCCGCGGAGTCACCTAGTGCAG”, 6930 fluorescence intensity (a.u.).
In the case of “ACCGAAGTATTCTCGGTTAGTTGCGCCACGCCATGCACGCCGGAGTCACCTAGTGCAG”, the binding signal is 4940 fluorescence intensity (a.u.).
With “CAAGCCGTCCACCCACTTCCGCTTCCCCACGTGCCGCTCGCGGAGTCACCTAGTGCAG” the figure was 3840 fluorescence intensity (a.u.); with “TAGATTCGATATGAACGGTCCAGATCCAGGTGGAGGGAGGCGGAGTCACCTAGTGCAG”, 3820 fluorescence intensity (a.u.).
Take “GAGATGAAGAGGGTACACATGACAGGTGGGAGGTAGAATTCGGAGTCACCTAGTGCAG”: the binding signal was 3200 fluorescence intensity (a.u.).
To “ACTAAGCTTCAATCTGCCATCATCATGGATATGATCATTGCGGAGTCACCTAGTGCAG” belongs 3870 fluorescence intensity (a.u.); to “ACACAGGTCCGGCACAAACCAAACTATCTCCCCGTGTCAACGGAGTCACCTAGTGCAG”, 3760 fluorescence intensity (a.u.); to “GTACCGAACACAGCCACGTAATCATGCAGGTTGCAGCCACCGGAGTCACCTAGTGCAG”, 10700 fluorescence intensity (a.u.).
For “TGCAACGGCGTCACCACAAATATCCATCCATGCTCGTCATCGGAGTCACCTAGTGCAG”, the binding signal is 4760 fluorescence intensity (a.u.).
To “CCCGTAGTCCATATCAGCATGACGTGATCATGAAGCAGGCCGGAGTCACCTAGTGCAG” belongs 13600 fluorescence intensity (a.u.); to “GGGAGTTGGGAGTTGGGACTCCCTGTGCCTCTCCTCTCCACGGAGTCACCTAGTGCAG”, 19600 fluorescence intensity (a.u.).
To “TTACAGTAGTTGAGACAACAAATACTCTAATCATTAACTCCGGAGTCACCTAGTGCAG” belongs 27900 fluorescence intensity (a.u.).
With “AAAGATTGAGGGGAAGGGTGATAGGTGGGCCCCACGTGGGCGGAGTCACCTAGTGCAG” the figure was 7630 fluorescence intensity (a.u.); with “ACTGAGATGGGAAAGTGTTAGTCACATTGCCTGCCTATGTCGGAGTCACCTAGTGCAG”, 3430 fluorescence intensity (a.u.).
Take “ATTTTCTTGTTTTACGTGTGACTTAATCTTCAATTTCATCCGGAGTCACCTAGTGCAG”: the binding signal was 3430 fluorescence intensity (a.u.).
With “CTTGTATGATTGTATCCCCTGACATGGCACCACACGCAGTCGGAGTCACCTAGTGCAG” the figure was 8140 fluorescence intensity (a.u.); with “CTTGGCGCCACGTGCGCGGTGCCGCGGTGTGCGCGGCCGACGGAGTCACCTAGTGCAG”, 7180 fluorescence intensity (a.u.); with “TGGGGTTATGGCTATATGGGCCGTCGTTGCGCTGACAGGACGGAGTCACCTAGTGCAG”, 4030 fluorescence intensity (a.u.).
Regarding “CCCGTCTCGCCTCCTCCGCAAGTGACGTCGACGCCTCATCCGGAGTCACCTAGTGCAG”, the binding signal is 7820 fluorescence intensity (a.u.).
For “TCGCGTGCTCGCGTCACGAGCTGCTGAAATACCTCGCTTTCGGAGTCACCTAGTGCAG”, the binding signal is 4530 fluorescence intensity (a.u.).
“GGCGTTGTTGTGTATGGGCTGTAATGTTAGTGGGCTGACACGGAGTCACCTAGTGCAG”: the binding signal was 3350 fluorescence intensity (a.u.).
In the case of “GAAGATCAATGATTCACTGTTTACTCGGCTTCTTCGCTGTCGGAGTCACCTAGTGCAG”, the binding signal is 5850 fluorescence intensity (a.u.).
To “GCCGCCTGGAATAAAAGGCGCACAGGGCTTTGGGAGTTTGCGGAGTCACCTAGTGCAG” belongs 3950 fluorescence intensity (a.u.); to “CCGCGCCTCTCCTCGCCTCCGCCTCCGTGCGCGGCTGCCGCGGAGTCACCTAGTGCAG”, 3690 fluorescence intensity (a.u.).
